Reference: PMC10163288
The other results are listed elsewhere or left out.

B1: il10ra_site1_normal_mot_HHH_b1_05357_000000034_0001_23_39_H_._HHH_b2_00663_0001_0000400021_0000002_1_af2pred_0001 (protein)
chain: SSSSSSDEEEVERLLEEAKEVPDPEERSYLLVRAFAVAYRSNDPELERLVEEVAKRLSESSSSSS
B2: il10ra_site1_normal_mot_HHH_b1_00999_000000080_0001_41_55_H_._HHH_b1_05572_af2_0001_0000300008_0000001_0 (protein)
chain: SSSSDELEEEFEKLEEELKHIEDPEEFSRVAAELVRLAFKLGDEELLQELWRIVREFGRKSSSSS
B3: il10ra_site1_sap_24_mot_HHH_b1_03314_af2_000000278_0001_42_55_H_._HHH_b2_01456_af2_0001_0000400018_0000001_0_0001_af2pred_dldesign_0_af2pred (protein)
chain: SSSSSLNQEVIELIKEAAELLSEGKPEEAKEVLEKALELAKKANNPLLVYTVEYLLSRLESSSSS
B4: il10ra_site1_sap_20_mot_HHH_b2_00105_af2_000000045_0001_1_19_H_._HHH_b1_08219_0001_0000100014_0000001_0_0001 (protein)
chain: SSSSDEEERRLEELLREIEEALERGNPEEALELVFEVTHLALRAQDEEALREVWRLVEEIASSSS
B5: il10ra_site1_sap_22_mot_HHH_b1_06174_af2_000000049_0001_40_57_H_._HHH_b1_06759_0001_0000200009_0000002_0_0001 (protein)
chain: SSSSSDSQEVYELLREAAELDHEGNPEEAEELLEKARELAEELNNDVLLWQVEYLLRLLNSSSSS
B6: il10ra_site1_sap_13_mot_HHH_b1_06819_af2_000000053_0001_23_38_H_._HHH_b2_00593_0001_0000100010_0000003_0_0001 (protein)
chain: SSSSSEELNDEAYKILEEALELMANGNPEEARELLEELRELLEEAGNQIFLKQVEFLLKQLSSSS
B7: il10ra_site1_normal_mot_HHH_b1_00482_000000190_0001_20_39_H_._HHH_b1_07814_0001_0000100002_0000001_0 (protein)
chain: SSSSDEEHLRLAELLTEIIRLLAEGDPEEARKLLEEAEELARELNDELAEDMLRTLEQHINSSSS
B8: il10ra_site1_sap_15_mot_HHH_b1_05088_af2_000000046_0001_20_36_H_._HHH_b2_03488_0001_0000400042_0000001_0_0001 (protein)
chain: SSSSDSREVYELLRRAAELLHDGNPEEAREVLEEAHKIAEEANNRVMEAVIRRMLEVVEELSSSS
B9: il10ra_site1_sap_22_mot_HHH_b1_00982_af2_000000222_0001_1_20_H_._HHH_b2_03094_af2_0001_0000100002_0000002_0_0001 (protein)
chain: SSSSTQESYEFTKRVAQEIVELLRNGNEEEAERVLEEAKEYLEKLGDEYFVEILERAFELSSSSS
B10: il10ra_site1_normal_mot_HHH_b1_05056_000000217_0001_1_20_H_._HHH_b2_06260_0001_0000300022_0000001_0 (protein)
chain: SSSSSEDEEEVEELLRQAEEAAKRDPREAARLLQEATHIALENSNQELLQEVWKVVKELADSSSS
B11: il10ra_site1_normal_mot_HHH_b1_06816_000000239_0001_1_19_H_._HHH_b2_02034_0001_0000600024_0000002_0_af2pred_0001 (protein)
chain: SSSSSSDLEEQAEELLEEVEKIDNPQERTEVARKAIELAVRAGNPELAREISRIATRLSSSSSSS
B12: il10ra_site1_normal_mot_HHH_b1_07369_af2_000000079_0001_1_18_H_._HHH_b1_01602_0001_0000500042_0000001_0 (protein)
chain: SSSSDEEELERYIEIALRFAELAGDPEVAERIRQLLEEFREEGDPRYTIEAAKAATRVLHGSSSS
B13: il10ra_site1_normal_mot_HHH_b1_05056_000000217_0001_1_20_H_._HHH_b2_02585_0001_0000300044_0000001_0 (protein)
chain: SSSSSDEEEREEVEELLEEAKRIEDRREVARLLQEATHLALRLQDPELLREVWRVVREWASSSSS
B14: il10ra_site1_normal_mot_HHH_b2_06979_000000158_0001_42_57_H_._HHH_b1_03932_af2_0001_0000400018_0000001_0 (protein)
chain: SSSSTERELAERAIELLRRAAHIDDEEEVEELLEEAKELAKEAGNELLLFNIEFRERDLLSSSSS
B15: il10ra_site1_sap_7_mot_HHH_b2_06142_af2_000000101_0001_1_18_H_._HHH_b1_06107_0001_0000100002_0000002_0_0001 (protein)
chain: SSSSDEEVLERAAEVSQEAVRLALRQGDEEALQELWRLFRRIIEEGDPELLEELEELLERLSSSS
B16: il10ra_site1_sap_19_mot_HHH_b1_03900_000000129_0001_1_16_H_._HHH_b1_06902_af2_0001_0000300009_0000002_1_0001 (protein)
chain: SSSSSEDRRELYRLTREAVELDHEGDPEKAKEVLEEAIELARELGDMLLLRIAEWLYELNSSSSS
B17: il10ra_site1_normal_mot_HHH_b1_05185_000000011_0001_22_39_H_._HHH_b1_01436_0001_0000200019_0000001_1_af2pred_0001 (protein)
chain: SSSSSRLEESIRRALERLEKAIREGDEEFVRLTIRLIRILIELANNEELEEILEQLEREFGSSSS
B18: il10ra_site1_sap_23_mot_HHH_b1_01233_000000085_0001_1_18_H_._HHH_b1_01214_0001_0000100002_0000001_0_0001 (protein)
chain: SSSSDEEHIEELARAVERQLEQLSKYDPRLLERLAEAARKALELWDEELAREIEELAKELLSSSS
B19: il10ra_site1_sap_12_mot_HHH_b1_06789_af2_000000041_0001_1_20_H_._HHH_b2_05839_af2_0001_0000300031_0000002_0_0001 (protein)
chain: SSSSSDEEEIEELLREIKELLENNDRERALELIQEALRVIFQHSDEEALRELFELVRKLGSSSSS
B20: il10ra_site1_sap_18_mot_HHH_b1_05860_000000142_0001_1_19_H_._HHH_b2_01497_0001_0000300018_0000001_0_0001 (protein)
chain: SSSEEHNRVAEELARALIRNDEELVEELLEELEEYVEETNDPAAREMLEIIRRAFEALRKGSSSS
B21: il10ra_site1_normal_mot_7f9b3cf633cfd27bca007b62ade1be3b_0001_1_000000138_0001_17_32_H_._HHH_b1_02747_0001_0000100006_0000002_0_af2pred_0001 (protein)
chain: SSSSSSEQLFRAAERLIRALGNPELAEEVEELLERYEKEGDERYEQEAAELVLEAARLADSSSSS
B22: il10ra_site1_normal_mot_HHH_b2_06142_af2_000000101_0001_1_18_H_._89c65acb93c0dbf80477798e1fe8a9b1_0001_1_0001_0000800018_0000001_0_af2pred_dldesign_0_af2pred (protein)
chain: SPELRALFERLLADPHDYAARVALYRLLTELTGDPEKAAEILAELYRLLRAGKPEEARALLERVE
B23: il10ra_site1_sap_20_mot_HHH_b2_00984_000000042_0001_1_20_H_._HHH_b1_04990_af2_0002_0000200010_0000001_0_0001_af2pred_0001 (protein)
chain: SSSSSSEEEIEELIEEAKRIEDPEEASHVLLKAFALANEARDPELRKEVEEAAQEVMESISSSSS
B24: il10ra_site1_normal_mot_HHH_b1_05357_000000034_0001_23_39_H_._HHH_b2_01639_0001_0000100002_0000001_0 (protein)
chain: SSSSSSDSEEEVEELLEEAKQIEDRRRRSHVLIRAYAIAHQANDPELEELVRKVAIELSSSSSSS
B25: il10ra_site1_sap_23_mot_HHH_b1_08508_000000230_0001_42_56_H_._5ee4a038a4e38403a52b52cc808907e6_0001_1_0001_0000500032_0000001_1_0001_af2pred_0001 (protein)
chain: SSSSKEEELIELALKFLKFLVEQGDREAAKRLARAIEQLIKRLGDEELQEIVEELLRLAEERSSS
B26: il10ra_site1_normal_mot_HHH_b1_05056_000000217_0001_1_20_H_._HHH_b1_01607_0001_0000100005_0000001_0 (protein)
chain: SSSSDEYREEVERLLEEAEEAAERGDPRKAARLLQEATRLALEAQDPELLQLVWEVVQRIASSSS
B27: il10ra_site1_sap_14_mot_0528de937f51a16133d72caa21901941_0001_000000147_0001_1_14_H_._0528de937f51a16133d72caa21901941_0001_af2_0001_0000200007_0000001_0_0001 (protein)
chain: DLLEAALEAAEEAGDPEAARIIEEVIRLLERGEVSPEELREELEELIKETGNLFLWQALFALRRE
B28: il10ra_site1_normal_mot_513c16ae44941e68898e0f7c259e5a28_0001_1_000000056_0001_35_50_H_._HHH_b1_02780_0001_0000100011_0000001_0 (protein)
chain: SSSSSQEEELLKAVARFLEQALEYNDERRLRAMLYALEFLARELGDEEAKEVVEEVQELLESSSS
B29: il10ra_site1_normal_mot_HHH_b2_00984_000000042_0001_1_20_H_._HHH_b1_04649_0001_0000100005_0000001_1 (protein)
chain: SSSSSEEEEEVEKLLEEAKRIDNLEELARVLLEAVRIALEIGNQELLQEIWRLIKELIKEISSSS
B30: il10ra_site1_sap_30_mot_HHH_b1_01011_000000096_0001_1_19_H_._HHH_b1_05957_0001_0000600022_0000001_0_0001_af2pred_dldesign_0_af2pred (protein)
chain: SKLEEVKRVVEYQAEAAGVEEVKVEVKDGKVIVTLTGDSRACELVELAAEAAGETFGVEVEVIRE
B31: il10ra_site1_normal_mot_HHH_b1_06789_af2_000000041_0001_1_20_H_._HHH_b1_07672_0001_0000100005_0000002_0 (protein)
chain: SSSSSNTRWLAEQAFIALERAIELGDEERIEHILEILENLAEFANDPYARELVEEARELLSSSSS
B32: il10ra_site1_sap_21_mot_HHH_b2_03220_af2_000000223_0001_23_40_H_._HHH_b1_07627_af2_0001_0000100003_0000001_0_0001_af2pred_0001 (protein)
chain: SSSSNWREDVESALRAAELAFERGDEEKAERILELARRLAELANDEELERLVEEVEKRLNSSSSS
B33: il10ra_site1_sap_15_mot_HHH_b2_02736_000000092_0001_22_38_H_._d0e5aa17b8994cf95a3b92f728436530_0001_0001_0000100001_0000002_0_0001 (protein)
chain: SSSSDEAQEEALKLSIEAFRLALRGNPEEARELLEEALKLAEEGGDERLVEMIEQLLETLSSSSS
B34: il10ra_site1_normal_mot_HHH_b1_07743_af2_000000164_0001_42_55_H_._HHH_b1_02184_0001_0000100001_0000001_0 (protein)
chain: SSSSDEREELARRVAELLVEASRIEDEEKVEELLREARELAEKLNNDILRAQVESLERLLSSSSS
B35: il10ra_site1_normal_mot_HHH_b1_07380_000000129_0001_1_20_H_._HHH_b1_07761_0001_0000800041_0000001_0 (protein)
chain: SSSSDEEDHELYRLSRRAAELLAEGNPEEAEELLREAEELAERNNNRVLLFTIRFLLRQVTSSSS
B36: il10ra_site1_normal_mot_a6c796b944619e241e020fd597ddb6da_0001_af2_000000092_0001_15_31_H_._HHH_b2_01778_af2_0001_0000100002_0000002_0_af2pred_0001 (protein)
chain: SSSSSSSEEEQEVHALIFFARISDNEDAAKISLELAKKIAEEINNEELREEIEELEKELSSSSSS
B37: il10ra_site1_normal_mot_HHH_b2_02537_000000065_0001_1_20_H_._HHH_b1_07925_0001_0000100001_0000001_0 (protein)
chain: SSSSTDEVFEFTRRVIEEASELFRNGNPEEAERVLEEAREYLEELGDELALRSVEHLLRAISSSS

biological target: il10ra, Q13651; assay: yeast display titration

Apparent Kd, inactive:
B1 no binding seen
B2 no binding seen
B3 no binding seen
B4 no binding seen
B5 no binding seen
B6 no binding seen
B7 no binding seen
B8 no binding seen
B9 no binding seen
B10 no binding seen
B11 no binding seen
B12 no binding seen
B13 no binding seen
B14 no binding seen
B15 no binding seen
B16 no binding seen
B17 no binding seen
B18 no binding seen
B19 no binding seen
B20 no binding seen
B21 no binding seen
B22 no binding seen
B23 no binding seen
B24 no binding seen
B25 no binding seen
B26 no binding seen
B27 no binding seen
B28 > 1.44 µM
B29 no binding seen
B30 no binding seen
B31 no binding seen
B32 no binding seen
B33 no binding seen
B34 no binding seen
B35 no binding seen
B36 no binding seen
B37 no binding seen

Already shown: entries from further up.
Apparent Kd, inactive:
B2 no binding seen
B3 no binding seen
